Experimental data as given in the supplement of paper PMC4371806.
Whole data set: some 1,600 compounds, median “plate-normalized OD600 growth (mean of duplicates)” near 0.31, cut for the lowest 2% near 0.23. Some of the results follow.

System: Escherichia coli BW25113
Test: plate-normalized OD600 growth (mean of duplicates) (OD600 (normalized)); higher = more growth (less inhibition)
Conditions: 10 µM
Procedure: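 E. coli BW25113 in LB (100 µl, 96-well, no shaking) was exposed to 10 µM of each compound (here the ChemBridge subset of a ~30,000-member library) and grown at 37°C for 24 h or 15°C for 48 h, in duplicate. Growth was read as OD600 and the duplicate ODs were normalized across screening plates to correct plate-to-plate variation.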

Row | SMILES | plate-normalized OD600 growth (temperature: 15°C, 48 h) | plate-normalized OD600 growth (temperature: 37°C, 24 h)
1 | COc1ccc(NC(=O)C2CC(=O)N(c3ccccc3C)C2)cc1 (configuration not stated) | 0.267 | 0.611
2 | N#Cc1c(-c2ccc([N+](=O)[O-])cc2)cc(-c2ccccc2)nc1N | 0.244 | 0.631
3 | C=CCn1c(SCCC)nc(O)cc1=O | 0.268 | 0.655
4 | O=C(Nc1ccccc1NC(=O)c1ccco1)c1ccco1 | 0.245 | 0.609
5 | NC(=O)C1CCCN(Cc2ccccc2F)C1 (configuration not stated) | 0.249 | 0.65
6 | c1ccc(NC2=Nc3ccccc3CC2)cc1 | 0.277 | 0.627
7 | c1cncc(CNc2ccc3c(c2)CCC3)c1 | 0.257 | 0.648
8 | N#CC1=C(N)SC(N)=C(C#N)C1Cc1ccccc1 | 0.259 | 0.643
9 | CN(C)CCOC(=O)NC12CC3CC(CC(C3)C1)C2 | 0.247 | 0.591
10 | O=S1(=O)CC(O)C(S(=O)(=O)c2ccccc2)C1 (configuration not stated) | 0.241 | 0.596
11 | OCC(O)CSc1nc2ccccc2[nH]1 (configuration not stated) | 0.236 | 0.608
12 | Cn1c2ccccc2c2nc3ccc([N+](=O)[O-])cc3cc21 | 0.249 | 0.639
13 | N#Cc1cc([N+](=O)[O-])cnc1NCCO | 0.242 | 0.622
14 | Cc1cccc(N2CCN(C(=O)c3ccc([N+](=O)[O-])cc3Cl)CC2)c1C | 0.26 | 0.631
15 | N#CC1=C(SCC(=O)Nc2ccc(Br)cc2)NC(=O)C(C#N)C12CCCCC2 (configuration not stated) | 0.257 | 0.604
16 | COC(C(=O)Nc1ccc([N+](=O)[O-])cc1)c1ccccc1 (configuration not stated) | 0.261 | 0.63
17 | CCc1ccc(-c2csc(Nc3cccc(OC)c3)n2)cc1 | 0.222 | 0.604
18 | OCCCc1cn(Cc2ccccc2)c2ccccc12 | 0.245 | 0.643
19 | CCCSc1nc(O)cc(=O)n1C | 0.261 | 0.622
20 | CCN(C(=O)Cc1ccccc1)C1CCCCC1 | 0.221 | 0.606
21 | O=C(O)CCCC(=O)Nc1cccc(Cl)c1Cl | 0.254 | 0.622
22 | Cc1cc(=O)[nH]c(SCC(=O)Nc2ccc(Br)cc2)c1C#N | 0.214 | 0.594
23 | O=C1CCCc2c1nc(-c1ccccc1)n2O | 0.272 | 0.662

Row | SMILES | plate-normalized OD600 growth (temperature: 15°C, 48 h) | plate-normalized OD600 growth (temperature: 37°C, 24 h)
24 | CC(=O)N1Cc2ccccc2C(C)CC12CCCC2 (configuration not stated) | 0.272 | 0.632
25 | COc1ccc(/C=C(/C#N)c2nc(-c3ccc(Br)cc3)cs2)cc1OC | 0.278 | 0.657
26 | O=C(Nc1ccccc1)c1ccc(O)c([N+](=O)[O-])c1 | 0.252 | 0.618
27 | Cc1ccc(S(=O)(=O)N(CC(=O)O)c2cccc(Cl)c2)cc1 | 0.268 | 0.636
28 | Cc1c(Cl)c([N+](=O)[O-])nn1CC(=O)NCC1CCCO1 (configuration not stated) | 0.259 | 0.633
29 | Cc1cc(C)c2ccc(C=O)nc2c1O | 0.239 | 0.624
30 | COc1ccc(OC)c(NC(=O)CCCN2C(=O)c3ccccc3C2=O)c1 | 0.241 | 0.622
31 | CSc1nc(SC)c2c3c(sc2n1)CN(C)CC3 | 0.241 | 0.616
32 | O=C(CN1CCCCC1)NC12CC3CC(CC(C3)C1)C2 | 0.274 | 0.65
33 | COc1ccccc1CNC(=O)c1ccccc1Cl | 0.243 | 0.616
34 | Cc1nc2cc(C(=O)O)ccc2n1C1CCCCC1 | 0.251 | 0.642
35 | Cc1cccc(C)c1NC(=O)C1CCCCC1C(=O)O (configuration not stated) | 0.251 | 0.615
36 | Cc1ccc(NC(=O)c2c(O)c3ccccc3[nH]c2=O)c(C)c1 | 0.27 | 0.648
37 | N#CC1=C(N)NC(SCC(=O)Nc2ccc(Br)cc2)=C(C#N)C12CCCCC2 | 0.252 | 0.586
38 | CSc1nnc2c3ccccc3n(C)c2n1 | 0.25 | 0.624
39 | COc1cccc(NC(=O)c2c(OC)cccc2OC)c1 | 0.256 | 0.62
40 | COc1ccc(N2C(=O)CCC(C(C)=O)=C2C)cc1 | 0.266 | 0.629
41 | CC(=O)c1cccc(NC(=O)C(Cc2ccc([N+](=O)[O-])cc2)N2C(=O)c3ccccc3C2=O)c1 (configuration not stated) | 0.235 | 0.608
42 | CC(C)(C)c1ccc(-c2csc(N)n2)cc1 | 0.246 | 0.622
43 | CCOc1ccc(N2C(=O)CC(NCC#N)C2=O)cc1 (configuration not stated) | 0.254 | 0.622
44 | CC1(C)CC1C(=O)NCc1ccccc1 (configuration not stated) | 0.248 | 0.618
45 | Cc1ccc(NC(=O)[C@@H]2C3C=CC(C3)[C@@H]2C(=O)O)c(C)c1 (some centres not stated) | 0.247 | 0.648
46 | Clc1cccc(Cl)c1-c1nnc2ccc3ccccc3n12 | 0.239 | 0.598

Row | SMILES | plate-normalized OD600 growth (temperature: 15°C, 48 h) | plate-normalized OD600 growth (temperature: 37°C, 24 h)
47 | CN1CCCN(Cc2ccc([N+](=O)[O-])o2)CC1 | 0.258 | 0.607
48 | CCN(CC)/C(=N/O)c1cccc([N+](=O)[O-])c1 | 0.263 | 0.67
49 | O=C(CCCOc1ccc(Cl)cc1Cl)N1CCCC1 | 0.255 | 0.614
50 | COc1ccccc1-n1c(SCC(=O)Nc2ccc(Cl)cc2)nc(O)cc1=O | 0.306 | 0.644
51 | O=C(CCN1CCCCC1)c1ccc(Cl)cc1 | 0.237 | 0.631
52 | Cc1ccc(C(=O)O)cc1S(=O)(=O)N1CCCCC1 | 0.232 | 0.633
53 | CC1=C(C#N)C(c2ccc(N(C)C)cc2)C2=C(CCCC2=O)N1 (configuration not stated) | 0.248 | 0.638
54 | Cc1cc(C)n(C(=O)c2ccc(Cl)cc2)n1 | 0.256 | 0.636
55 | Nc1nnc(-c2ccccc2I)s1 | 0.252 | 0.603
56 | Cc1nc(SCc2ccccc2)n[nH]1 | 0.267 | 0.635
57 | O=C(NCCc1ccccc1)Nc1cccc(Cl)c1 | 0.258 | 0.583
58 | OCCN(Cc1ccccc1)CC1CC=CCC1 (configuration not stated) | 0.25 | 0.61
59 | Nc1nc(/C=C/c2ccccc2)c([N+](=O)[O-])c(=O)[nH]1 | 0.272 | 0.646
60 | O=C(NCC1CCCO1)c1ccc2c(c1)OCO2 (configuration not stated) | 0.243 | 0.615
61 | COc1ccc(NC(=O)c2ccc(I)cc2)cc1OC | 0.239 | 0.59
62 | O=C(NCCc1nc2ccccc2[nH]1)Nc1ccccc1 | 0.239 | 0.603
63 | O=C(NCC1OCCc2ccccc21)c1ccccc1 (configuration not stated) | 0.26 | 0.63
64 | Cc1cc(CO)c(O)c(CCc2ccccc2)n1 | 0.259 | 0.629
65 | NS(=O)(=O)c1ccc(-c2ccc(C=O)o2)cc1 | 0.227 | 0.612
66 | COc1ccccc1S(=O)(=O)c1c(C)cc(C)cc1C | 0.261 | 0.615
67 | Fc1ccc(CN2CCN(Cc3cccnc3)CC2)cc1 | 0.26 | 0.625
68 | COc1ccc(NCc2ccc(C)s2)cc1OC | 0.244 | 0.604
69 | c1ccc(-c2[nH]nc(-c3cccnc3)c2-c2nc3ccccc3[nH]2)cc1 | 0.247 | 0.598

Row | SMILES | plate-normalized OD600 growth (temperature: 15°C, 48 h) | plate-normalized OD600 growth (temperature: 37°C, 24 h)
70 | CSc1nc(N)c2c3c(sc2n1)CCCCC3 | 0.249 | 0.617
71 | CC(C)Cc1ccc(C(C)C(=O)NC(C)C)cc1 (configuration not stated) | 0.233 | 0.62
72 | Cc1cc(C)nc(SCC(O)COc2ccc(C(C)(C)C)cc2)n1 (configuration not stated) | 0.232 | 0.635
73 | O=C(Nn1cnnc1)c1ccccc1Cl | 0.249 | 0.609
74 | c1ccc2[nH]c(CN3CCCCC3)nc2c1 | 0.265 | 0.621
75 | O=C(c1ccco1)N1CCN(Cc2cccc([N+](=O)[O-])c2)CC1 | 0.239 | 0.638
76 | Cc1nc(N)sc1-c1csc(Nc2ccc(O)cc2)n1 | 0.239 | 0.621
77 | COc1cc2c(cc1OC)C(c1cc(OC)c(OC)c(OC)c1)N(C)CC2 (configuration not stated) | 0.244 | 0.624
78 | Cc1cc(-c2ccc(C)o2)c(C#N)c(SCC(N)=O)n1 | 0.239 | 0.607
79 | CSc1nnc(Nc2ccccc2)n1-c1ccccc1 | 0.254 | 0.607
80 | C[C@H](NC(=O)Cc1ccccc1)c1ccccc1 | 0.304 | 0.633
81 | CC(=O)c1ccc(N2CCN(Cc3ccccn3)CC2)cc1 | 0.232 | 0.604
82 | COc1ccc(-c2cn3c4ccccc4n(CCN4CCOCC4)c3n2)cc1 | 0.244 | 0.62
83 | COc1cc(CN2CCSCC2)c([N+](=O)[O-])cc1OC | 0.23 | 0.6
84 | CC(C)CN(CC(C)C)C(=O)CCN1C(=O)c2ccccc2C1=O | 0.248 | 0.638
85 | Brc1ccccc1OCCN1CCCC1 | 0.254 | 0.628
86 | CCOc1ccccc1N1CCN(C(=O)c2ccccc2C)CC1 | 0.287 | 0.646
87 | CCOc1ccc(C(C)(CC(=O)O)C(=O)O)cc1 (configuration not stated) | 0.247 | 0.629
88 | COc1ccccc1NC(=O)C1=C(C)NC(SC)=C(C#N)C1c1ccccc1Cl (configuration not stated) | 0.248 | 0.613
89 | CC(/C=C/c1ccc(N(C)C)cc1)=C\C(=O)O | 0.252 | 0.602
90 | N#Cc1ccc(Oc2cccc(C(=O)O)c2)cc1 | 0.281 | 0.641
91 | Fc1ccccc1OCCCCN1CCCCC1 | 0.214 | 0.61
92 | CC(=O)N1c2ccccc2C(C)CC12CCCCC2 (configuration not stated) | 0.24 | 0.619

Laid out differently: 5 of the compounds above
Row,SMILES,"plate-normalized OD600 growth (temperature: 15°C, 48 h)","plate-normalized OD600 growth (temperature: 37°C, 24 h)"
71,CC(C)Cc1ccc(C(C)C(=O)NC(C)C)cc1 (configuration not stated),0.233,0.62
72,Cc1cc(C)nc(SCC(O)COc2ccc(C(C)(C)C)cc2)n1 (configuration not stated),0.232,0.635
73,O=C(Nn1cnnc1)c1ccccc1Cl,0.249,0.609
74,c1ccc2[nH]c(CN3CCCCC3)nc2c1,0.265,0.621
75,O=C(c1ccco1)N1CCN(Cc2cccc([N+](=O)[O-])c2)CC1,0.239,0.638

Additional results:

Row | SMILES | plate-normalized OD600 growth (temperature: 15°C, 48 h) | plate-normalized OD600 growth (temperature: 37°C, 24 h)
93 | O=C(/C=C/c1ccc(-c2cc(Cl)ccc2Cl)o1)c1ccco1 | 0.25 | 0.612
94 | COc1cccc(CNc2ccc(F)cc2C)c1 | 0.267 | 0.622
95 | CC(C)(C)C(=O)N1CCCC1C(=O)O (configuration not stated) | 0.244 | 0.611
96 | CCN(CC)CCSc1nc2ccccc2[nH]1 | 0.232 | 0.595
97 | Brc1ccccc1CN1CCN(c2ccccn2)CC1 | 0.244 | 0.606
98 | CC(=O)Nc1ccc2nc(-c3ccc(Cl)cc3Cl)[nH]c2c1 | 0.242 | 0.628
99 | Oc1ccc(O)c(C2CC3CCC2C3)c1 (configuration not stated) | 0.245 | 0.638
100 | CN1CCCN(C2CCCCCCC2)CC1 | 0.256 | 0.603
101 | COc1ccc(S(=O)(=O)N2CCCC(C)C2)cc1 (configuration not stated) | 0.266 | 0.639
102 | COc1ccc(NC(=O)c2cccc(S(=O)(=O)Nc3cccc([N+](=O)[O-])c3)c2)cc1 | 0.249 | 0.61
103 | O=C(Cc1ccc([N+](=O)[O-])cc1)NCCO | 0.256 | 0.644
104 | Cc1ccc(-c2ncccc2O)cc1[N+](=O)[O-] | 0.245 | 0.615
105 | CCCC(O)=C1C(=O)CC(C)(C)CC1=Nc1nc2ccccc2[nH]1 | 0.272 | 0.654
106 | O=c1[nH]nc(SCc2ccccc2)c(=O)[nH]1 | 0.252 | 0.614
107 | Cc1ccc2nc(/C(C#N)=C\c3ccco3)[nH]c2c1 | 0.242 | 0.599
108 | Cc1cc(C)cc(NCc2cc3c(cc2[N+](=O)[O-])OCO3)c1 | 0.273 | 0.669
109 | O=C(CC1Nc2ccccc2NC1=O)Nc1ccccc1 (configuration not stated) | 0.24 | 0.597
110 | O=Cc1ccccc1OCc1ccccc1F | 0.256 | 0.61
111 | Cc1sc2nc(SCC(=O)NC3CCCCC3)n(C)c(=O)c2c1C | 0.271 | 0.647
